Results taken from patent US20220177870A1.
Results are given in words; binding and its absence hold for the method and conditions named. Some entries that bind do so weakly or less than the wild type. Sequences can lack the tags named with a protein. Blank lines part the entries; values can stand above or below the binder they belong to.

Amino acid sequences for entries named in this document (tags omitted). A change or cut given only in a name is not applied to a line headed by its entry.
UniProt P55899: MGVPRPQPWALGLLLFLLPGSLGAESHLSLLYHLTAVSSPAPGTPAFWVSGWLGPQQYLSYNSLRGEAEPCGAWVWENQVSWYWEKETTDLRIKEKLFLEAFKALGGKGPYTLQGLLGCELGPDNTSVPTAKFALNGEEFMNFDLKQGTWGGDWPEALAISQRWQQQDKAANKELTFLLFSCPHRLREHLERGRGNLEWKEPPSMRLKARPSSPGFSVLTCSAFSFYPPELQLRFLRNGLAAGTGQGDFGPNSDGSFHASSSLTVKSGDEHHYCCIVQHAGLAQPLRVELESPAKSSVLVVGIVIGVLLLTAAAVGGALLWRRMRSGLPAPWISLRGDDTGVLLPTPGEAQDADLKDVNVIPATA

What was measured:
[1] = biological target: human soluble FCRN protein (human) (UniProt P55899); experiment: BLI (GatorBio), pH 6 and pH 7
[2] = biological target: human soluble FCRN protein (human) (UniProt P55899); experiment: BLI (GatorBio), biotinylated FcRn on streptavidin probe, VHO-Fc as analyte, pH 7 and pH 6

- binding [1]: binds
- binding [2]: binds
B1: VHO4-Fc (Fc fusion, not shown: a dimerising Fc or GST)
chain: EVQLLESGGGLVQPGGSLRLSCAASGFTFSSYGMSWVRQAPGKGLEWVSAIWSDGSSTYYADSVKGRFTISRDNSKNTLYLQMNSLRAEDTAVYYCARRTWGHQFDYWGQGTLVTVSS

- binding [1]: binds
- binding [2]: binds
B2: VHO5-Fc (Fc fusion, not shown: a dimerising Fc or GST)
chain: EVQLLESGGGLVQPGGSLRLSCAASGFTFSSYWMHWVRQAPGKGLEWVSVINYSGSSTYYADSVKGRFTISRDNSKNTLYLQMNSLRAEDTAVYYCAMGTPGELPLDYWGQGTLVTVSS

- binding [1]: binds
- binding [2]: binds
B3: VHO3-Fc (Fc fusion, not shown: a dimerising Fc or GST)
chain: EVQLLESGGGLVQPGGSLRLSCAASGFTFSTYWMSWVRQAPGKGLEWVSVISGDGGSTYYADSVKGRFTISRDNSKNTLYLQMNSLRAEDTAVYYCAKWKGAGRGPGALGGLDVWGQGTLVTVSS
